According to publication PMC5974482:
Results are given in words; binding and its absence hold for the method and conditions named. In cells and extracts the contact can be indirect. Some results given as binding are weak or reduced against the parent protein; the word gives no strength.

The chains behind the UniProt entries cited, without tags or fusion partners.
UniProt Q9C0C2: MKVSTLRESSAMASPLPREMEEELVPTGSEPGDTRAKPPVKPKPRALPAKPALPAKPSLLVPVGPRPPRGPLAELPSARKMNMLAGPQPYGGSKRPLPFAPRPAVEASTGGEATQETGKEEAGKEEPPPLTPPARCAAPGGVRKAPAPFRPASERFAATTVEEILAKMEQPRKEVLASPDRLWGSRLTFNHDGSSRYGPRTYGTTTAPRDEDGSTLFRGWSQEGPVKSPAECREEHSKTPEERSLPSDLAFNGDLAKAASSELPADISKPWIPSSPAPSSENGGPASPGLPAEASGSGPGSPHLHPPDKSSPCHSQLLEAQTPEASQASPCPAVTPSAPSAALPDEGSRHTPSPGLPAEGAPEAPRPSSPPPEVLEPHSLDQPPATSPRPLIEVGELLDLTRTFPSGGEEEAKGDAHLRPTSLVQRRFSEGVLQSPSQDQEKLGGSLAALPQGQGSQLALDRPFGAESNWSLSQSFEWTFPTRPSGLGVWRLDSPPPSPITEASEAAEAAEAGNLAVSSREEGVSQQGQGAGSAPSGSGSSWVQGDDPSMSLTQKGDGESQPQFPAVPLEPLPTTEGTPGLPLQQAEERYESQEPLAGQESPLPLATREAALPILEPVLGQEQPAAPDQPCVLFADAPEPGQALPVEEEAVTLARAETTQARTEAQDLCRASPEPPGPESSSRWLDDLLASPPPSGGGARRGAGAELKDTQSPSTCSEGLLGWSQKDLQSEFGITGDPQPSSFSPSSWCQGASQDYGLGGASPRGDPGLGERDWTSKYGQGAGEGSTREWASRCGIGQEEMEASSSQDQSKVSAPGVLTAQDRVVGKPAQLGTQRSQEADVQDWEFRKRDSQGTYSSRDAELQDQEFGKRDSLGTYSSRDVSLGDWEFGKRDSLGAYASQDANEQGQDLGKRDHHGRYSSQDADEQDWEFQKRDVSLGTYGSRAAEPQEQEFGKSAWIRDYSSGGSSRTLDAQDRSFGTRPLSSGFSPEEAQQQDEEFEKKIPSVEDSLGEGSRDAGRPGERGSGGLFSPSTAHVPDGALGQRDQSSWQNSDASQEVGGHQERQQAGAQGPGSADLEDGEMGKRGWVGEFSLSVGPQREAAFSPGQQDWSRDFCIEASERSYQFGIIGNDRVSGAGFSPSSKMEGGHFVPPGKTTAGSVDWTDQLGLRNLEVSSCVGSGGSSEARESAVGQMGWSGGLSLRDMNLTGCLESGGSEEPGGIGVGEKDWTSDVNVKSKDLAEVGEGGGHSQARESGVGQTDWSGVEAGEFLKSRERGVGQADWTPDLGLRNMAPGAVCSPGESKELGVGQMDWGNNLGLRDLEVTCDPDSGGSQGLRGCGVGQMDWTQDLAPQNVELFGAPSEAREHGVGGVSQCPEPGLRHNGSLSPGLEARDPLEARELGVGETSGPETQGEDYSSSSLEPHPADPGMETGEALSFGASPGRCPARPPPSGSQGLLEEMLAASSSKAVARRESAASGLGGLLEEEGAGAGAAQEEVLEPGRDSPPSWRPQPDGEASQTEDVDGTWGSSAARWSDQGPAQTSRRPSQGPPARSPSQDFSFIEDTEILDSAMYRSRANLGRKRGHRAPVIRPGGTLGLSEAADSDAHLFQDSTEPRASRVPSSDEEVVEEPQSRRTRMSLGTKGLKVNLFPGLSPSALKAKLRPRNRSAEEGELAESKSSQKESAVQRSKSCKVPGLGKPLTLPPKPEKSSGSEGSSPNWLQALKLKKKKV
UniProt Q99873: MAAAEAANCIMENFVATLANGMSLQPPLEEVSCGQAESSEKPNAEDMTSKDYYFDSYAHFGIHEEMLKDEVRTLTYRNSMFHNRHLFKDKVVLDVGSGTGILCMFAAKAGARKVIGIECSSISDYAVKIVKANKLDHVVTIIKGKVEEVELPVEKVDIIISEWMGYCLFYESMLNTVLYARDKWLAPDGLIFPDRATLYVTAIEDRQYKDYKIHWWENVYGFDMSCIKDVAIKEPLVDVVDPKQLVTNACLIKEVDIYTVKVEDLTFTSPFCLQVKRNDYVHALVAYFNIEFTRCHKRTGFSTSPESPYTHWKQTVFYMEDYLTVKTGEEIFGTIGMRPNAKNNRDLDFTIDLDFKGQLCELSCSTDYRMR
UniProt A5YKK6: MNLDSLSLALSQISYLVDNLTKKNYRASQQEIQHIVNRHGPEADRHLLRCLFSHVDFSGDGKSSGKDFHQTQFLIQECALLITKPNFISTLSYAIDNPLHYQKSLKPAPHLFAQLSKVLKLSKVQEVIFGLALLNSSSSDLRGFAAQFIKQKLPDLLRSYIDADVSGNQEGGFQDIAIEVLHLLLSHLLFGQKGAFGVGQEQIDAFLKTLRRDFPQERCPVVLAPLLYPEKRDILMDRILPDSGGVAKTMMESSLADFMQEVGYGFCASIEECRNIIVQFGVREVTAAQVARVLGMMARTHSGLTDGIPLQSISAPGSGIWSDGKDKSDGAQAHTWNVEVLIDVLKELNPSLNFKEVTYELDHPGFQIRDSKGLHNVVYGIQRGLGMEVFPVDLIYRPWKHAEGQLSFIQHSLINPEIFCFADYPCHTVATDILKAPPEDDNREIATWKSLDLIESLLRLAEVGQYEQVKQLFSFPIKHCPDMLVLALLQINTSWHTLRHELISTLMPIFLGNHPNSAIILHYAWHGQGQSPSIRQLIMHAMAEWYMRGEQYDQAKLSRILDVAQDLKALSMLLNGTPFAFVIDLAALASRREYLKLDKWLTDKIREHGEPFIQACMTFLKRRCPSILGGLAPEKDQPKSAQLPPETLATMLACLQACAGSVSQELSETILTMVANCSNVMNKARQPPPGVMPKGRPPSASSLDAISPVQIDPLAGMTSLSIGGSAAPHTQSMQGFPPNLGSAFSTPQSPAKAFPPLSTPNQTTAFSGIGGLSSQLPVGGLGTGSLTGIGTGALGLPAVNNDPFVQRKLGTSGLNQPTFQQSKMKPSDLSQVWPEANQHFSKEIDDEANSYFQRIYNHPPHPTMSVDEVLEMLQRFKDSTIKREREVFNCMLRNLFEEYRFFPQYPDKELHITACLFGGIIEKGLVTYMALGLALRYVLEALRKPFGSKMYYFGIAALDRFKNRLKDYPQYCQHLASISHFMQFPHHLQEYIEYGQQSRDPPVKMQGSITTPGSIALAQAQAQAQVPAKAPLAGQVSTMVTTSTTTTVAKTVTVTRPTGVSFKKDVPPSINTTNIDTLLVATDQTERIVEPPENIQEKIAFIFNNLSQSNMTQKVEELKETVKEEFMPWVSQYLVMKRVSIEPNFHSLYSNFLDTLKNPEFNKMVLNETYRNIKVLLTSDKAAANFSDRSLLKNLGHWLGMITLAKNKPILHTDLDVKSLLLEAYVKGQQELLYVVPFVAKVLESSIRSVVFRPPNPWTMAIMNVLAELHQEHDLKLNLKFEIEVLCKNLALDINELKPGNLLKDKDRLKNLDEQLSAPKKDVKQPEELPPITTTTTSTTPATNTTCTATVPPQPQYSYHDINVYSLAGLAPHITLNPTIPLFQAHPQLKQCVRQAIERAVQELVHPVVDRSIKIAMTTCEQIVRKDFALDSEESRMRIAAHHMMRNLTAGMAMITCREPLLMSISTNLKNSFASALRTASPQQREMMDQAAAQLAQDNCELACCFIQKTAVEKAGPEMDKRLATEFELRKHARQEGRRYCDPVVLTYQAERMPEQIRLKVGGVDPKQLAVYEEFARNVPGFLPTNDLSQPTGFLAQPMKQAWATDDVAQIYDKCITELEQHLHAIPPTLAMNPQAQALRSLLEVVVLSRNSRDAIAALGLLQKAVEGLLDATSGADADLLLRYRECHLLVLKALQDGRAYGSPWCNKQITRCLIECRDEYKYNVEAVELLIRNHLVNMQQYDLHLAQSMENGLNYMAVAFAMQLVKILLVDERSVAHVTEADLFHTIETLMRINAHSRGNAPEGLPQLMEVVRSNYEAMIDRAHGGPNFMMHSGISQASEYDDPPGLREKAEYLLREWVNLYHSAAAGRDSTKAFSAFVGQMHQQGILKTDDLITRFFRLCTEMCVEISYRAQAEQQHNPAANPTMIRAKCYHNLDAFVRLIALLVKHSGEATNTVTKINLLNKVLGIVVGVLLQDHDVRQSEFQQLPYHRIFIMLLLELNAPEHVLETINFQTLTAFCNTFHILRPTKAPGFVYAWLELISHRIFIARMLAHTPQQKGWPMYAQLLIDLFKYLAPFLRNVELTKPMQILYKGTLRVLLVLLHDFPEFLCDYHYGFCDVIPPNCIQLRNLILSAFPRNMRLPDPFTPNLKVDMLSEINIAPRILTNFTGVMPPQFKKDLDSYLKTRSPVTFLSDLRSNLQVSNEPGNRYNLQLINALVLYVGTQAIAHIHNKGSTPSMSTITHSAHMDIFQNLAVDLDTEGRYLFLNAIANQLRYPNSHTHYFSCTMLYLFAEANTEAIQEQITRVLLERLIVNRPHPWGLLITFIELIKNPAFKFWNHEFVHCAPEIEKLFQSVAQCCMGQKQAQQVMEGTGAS
UniProt P04491: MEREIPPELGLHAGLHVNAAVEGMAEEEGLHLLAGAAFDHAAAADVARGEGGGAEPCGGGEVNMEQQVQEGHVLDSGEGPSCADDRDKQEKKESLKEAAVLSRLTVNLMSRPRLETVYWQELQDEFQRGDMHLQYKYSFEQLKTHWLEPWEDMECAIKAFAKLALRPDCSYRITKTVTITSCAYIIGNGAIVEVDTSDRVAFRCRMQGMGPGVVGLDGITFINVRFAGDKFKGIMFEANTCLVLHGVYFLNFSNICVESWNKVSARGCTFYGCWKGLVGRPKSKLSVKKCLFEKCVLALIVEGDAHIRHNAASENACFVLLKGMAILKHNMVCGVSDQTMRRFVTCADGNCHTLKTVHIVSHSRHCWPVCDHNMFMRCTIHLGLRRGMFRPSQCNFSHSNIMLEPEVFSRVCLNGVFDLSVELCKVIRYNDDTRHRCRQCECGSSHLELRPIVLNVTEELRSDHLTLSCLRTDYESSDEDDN
UniProt P03243: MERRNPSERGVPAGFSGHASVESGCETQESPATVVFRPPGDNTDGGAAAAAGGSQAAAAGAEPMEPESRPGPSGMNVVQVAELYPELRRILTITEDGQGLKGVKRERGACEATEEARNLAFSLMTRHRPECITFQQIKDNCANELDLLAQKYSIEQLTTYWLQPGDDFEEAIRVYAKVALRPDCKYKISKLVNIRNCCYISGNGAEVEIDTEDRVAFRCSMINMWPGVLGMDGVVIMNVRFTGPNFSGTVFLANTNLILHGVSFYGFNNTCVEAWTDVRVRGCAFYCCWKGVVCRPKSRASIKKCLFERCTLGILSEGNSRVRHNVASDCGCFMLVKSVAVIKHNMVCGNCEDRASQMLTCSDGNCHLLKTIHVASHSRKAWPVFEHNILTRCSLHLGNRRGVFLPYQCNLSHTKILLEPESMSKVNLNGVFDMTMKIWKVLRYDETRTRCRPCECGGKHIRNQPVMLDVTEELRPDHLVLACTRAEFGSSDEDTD

How the values were obtained:
[1] = target: Tankyrase 1 binding protein 1 (TNKS1BP1, Tab182), endogenous (human (endogenous in Ad5E1HEK293, Ad12E1HER2, HeLa, HEK293FT)) (UniProt Q9C0C2); assay: co-IP
[2] = target: GST-PRMT1 (UniProt Q99873); assay: pull-down; only the target purified
[3] = target: CNOT1 (human (endogenous in HeLa, Ad5E1HEK293, Ad12E1HER2)) (UniProt A5YKK6); assay: co-IP; Ad5E1HEK293 and Ad12E1HER2 lysates (500 ug total protein) immunoprecipitated with antibody against CNOT1 (controls: collagen IV antibody, IgG); Western blot for Ad5E1B55K and Ad12E1B55K
[4] = target: Adenovirus serotype 12 early region 1B55K protein (Ad12E1B55K) (adenovirus serotype 12) (UniProt P04491); assay: co-IP
[5] = target: Adenovirus serotype 5 early region 1B55K protein (Ad5E1B55K) (adenovirus serotype 5) (UniProt P03243); assay: co-IP

| Substance | binding [1] | binding [2] | binding [3] | binding [4] | binding [5] |
| --- | --- | --- | --- | --- | --- |
| Adenovirus serotype 5 early region 1B55K protein (Ad5E1B55K) (from UniProt P03243 1-496) | binds | no binding | binds |  |  |
| Tankyrase 1 binding protein 1 (TNKS1BP1, Tab182), endogenous (from UniProt Q9C0C2 1-1729) |  |  |  | binds | binds |
| Adenovirus serotype 12 early region 1B55K protein (Ad12E1B55K) (from UniProt P04491 1-482) | binds | no binding | binds |  |  |
